Measurements reported in PubChem BioAssay AID1508588 (Peter MacCallum Cancer Centre, 2020)
The whole screen tested about 18,000 reagents; below is a random part of them. 790 of all reagents (4.4%) count as active. 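Calls rest on a combination of fold-change classes in drug and vehicle arms, not all shown here.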 A number with no mark means an inactive call.

Assay: 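Knock-downs boosting vemurafenib effects on melanoma cell growth or lactate release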 (primary screen)
System: human WM266.4 melanoma cells (BRAF V600 mutant)
Knock-down reagent: siRNA pool against human genes, 40 nM
Duration: 96 h from transfection to read-out
Challenge: vemurafenib 300 nM (about IC25), added 48 h after transfection, for 48 h; comparison arm got DMSO vehicle only
Detection: 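Ratios to non-targeting siRNA for cell gain, counted as DAPI nuclei after minus before drug and averaged over two replicates, and for absorbance-read medium lactate per cell; both binned into fold-change classes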
Direction: cell gain with vemurafenib: higher = more cell gain than with non-targeting siRNA; lactate per cell with vemurafenib: higher = more lactate made per cell
Rule for the call: 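a knock-down counts as enhancing when its fold-change classes with vehicle and with vemurafenib, taken together, show a stronger drug effect on cell gain or lactate per cell; exact class pairs not stated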
Meaning of the calls: active = enhances vemurafenib effect; inactive = no enhancement seen

Depletion of CNIH2 resulted in: cell gain with vemurafenib 0.57; lactate per cell with vemurafenib 2.1.
SYTL3 showed cell gain with vemurafenib 0.81; lactate per cell with vemurafenib 1.04.
Silencing of SLBP came out at: cell gain with vemurafenib 0.2; lactate per cell with vemurafenib 1.38.
SMARCA1 scored cell gain with vemurafenib 0.6; lactate per cell with vemurafenib 0.8.
For MSRB3, the entry reads cell gain with vemurafenib 0.12; lactate per cell with vemurafenib 1.71.
With knock-down of HSD17B1, the screen gave cell gain with vemurafenib 1.23; lactate per cell with vemurafenib 1.19.
Silencing of MTHFD2 came out at: cell gain with vemurafenib 0.85; lactate per cell with vemurafenib 0.73.
Silencing of CA7 came out at: cell gain with vemurafenib 0.63; lactate per cell with vemurafenib 0.44.
SCYL1 showed cell gain with vemurafenib 0.92; lactate per cell with vemurafenib 1.06.
Silencing of PACS2 resulted in: cell gain with vemurafenib 0.58; lactate per cell with vemurafenib 1.11.
Silencing of CDK16 came out at: cell gain with vemurafenib 0.46; lactate per cell with vemurafenib 1.84.
Against ZNF213, the entry reads cell gain with vemurafenib 0.98; lactate per cell with vemurafenib 0.39.
After knock-down of CENPO, the record shows cell gain with vemurafenib 0.93; lactate per cell with vemurafenib 1.31.
DHX9 gave cell gain with vemurafenib 0.42; lactate per cell with vemurafenib 1.56.
Silencing of INO80 gave: cell gain with vemurafenib 0.75; lactate per cell with vemurafenib 0.42.
After knock-down of GOLGA8A the results were cell gain with vemurafenib 0.35; lactate per cell with vemurafenib 0.62.
After knock-down of MYBL1, the record shows cell gain with vemurafenib 0.6; lactate per cell with vemurafenib 1.39.
Against STAP1, the values are cell gain with vemurafenib 0.53; lactate per cell with vemurafenib 1.23.
With knock-down of LDAH the results were cell gain with vemurafenib 0.6; lactate per cell with vemurafenib 0.87.
Silencing of NKAPD1 gave: cell gain with vemurafenib 0.94; lactate per cell with vemurafenib 0.86.
Depletion of CCDC150 came out at: cell gain with vemurafenib 0.27; lactate per cell with vemurafenib 1.87.
For RHCE, the values are cell gain with vemurafenib 0.47; lactate per cell with vemurafenib 0.86.
With knock-down of DPF3, the screen gave cell gain with vemurafenib 0.44; lactate per cell with vemurafenib 0.68.
Silencing of ONECUT1 resulted in: cell gain with vemurafenib 0.92; lactate per cell with vemurafenib 1.06.
After knock-down of TIGD7, the screen gave cell gain with vemurafenib 0.54; lactate per cell with vemurafenib 1.09.
Silencing of MAGEC2 gave: cell gain with vemurafenib 1.02; lactate per cell with vemurafenib 0.97.
After knock-down of TWIST2, the record shows cell gain with vemurafenib 0.8; lactate per cell with vemurafenib 1.33.
SAMM50 scored cell gain with vemurafenib 0.48; lactate per cell with vemurafenib 0.53.
Against SCN4A, the entry reads cell gain with vemurafenib 1.1; lactate per cell with vemurafenib 0.41.
Against ARHGAP6 the deposit lists cell gain with vemurafenib 0.73 (active); lactate per cell with vemurafenib 0.16.
Depletion of PAGE3 gave: cell gain with vemurafenib 0.18; lactate per cell with vemurafenib 3.16.
For DRC2 the deposit lists cell gain with vemurafenib 0.42; lactate per cell with vemurafenib 2.29.
With knock-down of RTKN2, the record shows cell gain with vemurafenib 0.54; lactate per cell with vemurafenib 1.08.
Against ZNF71, the entry reads cell gain with vemurafenib 0.2; lactate per cell with vemurafenib 1.82.
With knock-down of ARFIP1 the results were cell gain with vemurafenib 0.06; lactate per cell with vemurafenib 2.41.
INSR gave cell gain with vemurafenib 0.31; lactate per cell with vemurafenib 1.6.
Knock-down of TTC7A gave: cell gain with vemurafenib 0.35; lactate per cell with vemurafenib 1.62.
After knock-down of PEA15 the results were cell gain with vemurafenib 0.46; lactate per cell with vemurafenib 1.42.
Depletion of SACM1L gave: cell gain with vemurafenib 0.77; lactate per cell with vemurafenib 0.84.
Depletion of FHIP2A gave: cell gain with vemurafenib 0.34; lactate per cell with vemurafenib 0.96.
